Measured values taken from doi:10.1101/322610.
These are yes or no findings as the source states them, for the method shown. In cells and extracts the contact can be indirect. Some binding calls cover weakened binding; strength is not graded here.

Chains of the proteins cited; added tags and fusions are not shown.
UniProt Q3V3Q7: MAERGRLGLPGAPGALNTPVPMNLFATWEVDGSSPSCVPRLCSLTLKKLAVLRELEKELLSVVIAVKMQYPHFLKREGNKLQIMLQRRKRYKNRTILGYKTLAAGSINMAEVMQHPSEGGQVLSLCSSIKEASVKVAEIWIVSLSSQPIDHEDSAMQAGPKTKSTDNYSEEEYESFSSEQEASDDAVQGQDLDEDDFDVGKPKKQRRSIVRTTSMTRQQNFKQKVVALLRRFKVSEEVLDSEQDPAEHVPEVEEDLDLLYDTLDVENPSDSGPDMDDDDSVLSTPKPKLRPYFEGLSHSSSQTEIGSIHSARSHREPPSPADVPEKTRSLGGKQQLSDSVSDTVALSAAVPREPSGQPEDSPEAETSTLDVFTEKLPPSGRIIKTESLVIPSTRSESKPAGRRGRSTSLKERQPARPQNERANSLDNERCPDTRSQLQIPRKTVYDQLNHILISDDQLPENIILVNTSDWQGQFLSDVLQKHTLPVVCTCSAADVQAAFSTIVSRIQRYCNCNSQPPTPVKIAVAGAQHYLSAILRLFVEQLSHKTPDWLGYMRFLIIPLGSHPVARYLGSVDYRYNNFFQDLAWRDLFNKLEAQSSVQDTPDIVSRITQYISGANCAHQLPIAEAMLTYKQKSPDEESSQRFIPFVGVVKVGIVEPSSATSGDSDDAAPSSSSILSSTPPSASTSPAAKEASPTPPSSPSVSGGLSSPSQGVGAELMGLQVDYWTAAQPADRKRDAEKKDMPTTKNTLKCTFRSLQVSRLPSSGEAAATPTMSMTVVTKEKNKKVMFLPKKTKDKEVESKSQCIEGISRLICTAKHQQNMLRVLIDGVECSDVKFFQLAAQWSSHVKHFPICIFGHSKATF

Molecular target: phosphofurin acidic cluster sorting protein 2 (mouse) (mouse (endogenous in hippocampus)) (UniProt Q3V3Q7)
Assay: co-IP

B1: mfn2 (mouse) (protein, UniProt Q80U63 1-757)
chain: MSLLFSRCNSIVTVKKDKRHMAEVNASPLKHFVTAKKKINGIFEQLGAYIQESASFLEDTHRNTELDPVTTEEQVLDVKGYLSKVRGISEVLARRHMKVAFFGRTSNGKSTVINAMLWDKVLPSGIGHTTNCFLRVGGTDGHEAFLLTEGSEEKKSVKTVNQLAHALHQDEQLHAGSMVSVMWPNSKCPLLKDDLVLMDSPGIDVTTELDSWIDKFCLDADVFVLVANSESTLMQTEKQFFHKVSERLSRPNIFILNNRWDASASEPEYMEEVRRQHMERCTSFLVDELGVVDRAQAGDRIFFVSAKEVLSARVQKAQGMPEGGGALAEGFQVRMFEFQNFERQFEECISQSAVKTKFEQHTVRAKQIAEAVRLIMDSLHIAAQEQRVYCLEMREERQDRLRFIDKQLELLAQDYKLRIKQITEEVERQVSTAMAEEIRRLSVLVDEYQMDFHPSPVVLKVYKNELHRHIEEGLGRNLSDRCSTAIASSLQTMQQDMIDGLKPLLPVSMRNQIDMLVPRQCFSLSYDLNCDKLCADFQEDIEFHFSLGWTMLVNRFLGPKNSRRALLGYSDQVQRPLPLTPANPSMPPLPQSSLTQEELMVSMVTGLASLTSRTSMGILVVGGVVWKAVGWRLIALSFGLYGLLYVYERLTWTTKAKERAFKRQFVEYASEKLQLIISYTGSNCSHQVQQELSGTFAHLCQQVDITRDNLEQEIAAMNKKVEALDSLQSRAKLLRNKAGWLDSELNMFTHQYLQPSR
B1 was tested, and the binding was “binds”.
